The target of test [1] is SFB-tagged HAT domain of human OGA (C-OGA) (human). The experiment in a line: co-IP; SFB-OGA constructs expressed in 293T cells, with Myc-tagged or endogenous NONO, Ku70, Ku80; lysed with NETN300 buffer; IP and western blot; with or without 10 Gy of IR. (A western blot detects proteins with antibodies after separation by electrophoresis.)
Test [2] shares this target. The experiment in a line: co-IP; two-step co-IP from 293T cells transfected with SFB-C-OGA, after DNA damage: streptavidin beads first, then anti-NONO or anti-Ku70/80 antibodies; western blot (O-GlcNAc).

For 2 molecules, binding results are on record in publication PMC8209095.

Results are given in words; binding and its absence hold for the method and conditions named. Binding seen in cells or lysates may run through a third protein. A result given as binding can be weak or reduced; the word gives no strength. For part of these data: Where a sequence is shown, tags or fusion partners need not be part of it.

B1: endogenous NONO (protein, UniProt Q15233 1-471)
chain: MQSNKTFNLEKQNHTPRKHHQHHHQQQHHQQQQQQPPPPPIPANGQQASSQNEGLTIDLKNFRKPGEKTFTQRSRLFVGNLPPDITEEEMRKLFEKYGKAGEVFIHKDKGFGFIRLETRTLAEIAKVELDNMPLRGKQLRVRFACHSASLTVRNLPQYVSNELLEEAFSVFGQVERAVVIVDDRGRPSGKGIVEFSGKPAARKALDRCSEGSFLLTTFPRPVTVEPMDQLDDEEGLPEKLVIKNQQFHKEREQPPRFAQPGSFEYEYAMRWKALIEMEKQQQDQVDRNIKEAREKLEMEMEAARHEHQVMLMRQDLMRRQEELRRMEELHNQEVQKRKQLELRQEEERRRREEEMRRQQEEMMRRQQEGFKGTFPDAREQEIRMGQMAMGGAMGINNRGAMPPAPVPAGTPAPPGPATMMPDGTLGLTPPTTERFGQAATMEGIGAIGGTPPAFNRAAPGAEFAPNKRRRY
In the case of B1, the binding result in test [1] and in test [2] was “binds” each time.

B2: Myc-NONO (protein, UniProt Q15233 1-471)
chain: MQSNKTFNLEKQNHTPRKHHQHHHQQQHHQQQQQQPPPPPIPANGQQASSQNEGLTIDLKNFRKPGEKTFTQRSRLFVGNLPPDITEEEMRKLFEKYGKAGEVFIHKDKGFGFIRLETRTLAEIAKVELDNMPLRGKQLRVRFACHSASLTVRNLPQYVSNELLEEAFSVFGQVERAVVIVDDRGRPSGKGIVEFSGKPAARKALDRCSEGSFLLTTFPRPVTVEPMDQLDDEEGLPEKLVIKNQQFHKEREQPPRFAQPGSFEYEYAMRWKALIEMEKQQQDQVDRNIKEAREKLEMEMEAARHEHQVMLMRQDLMRRQEELRRMEELHNQEVQKRKQLELRQEEERRRREEEMRRQQEEMMRRQQEGFKGTFPDAREQEIRMGQMAMGGAMGINNRGAMPPAPVPAGTPAPPGPATMMPDGTLGLTPPTTERFGQAATMEGIGAIGGTPPAFNRAAPGAEFAPNKRRRY
In the case of B2, the binding entry in test [1] is given as “binds”.
